Reference: PMC5732302

Target: T1, She1-HALO labelled with HaloTag-TMR ligand (She1-TMR) (budding yeast) (UniProt P38200)
T1 sequence (chain, TMR (HaloTag-TMR ligand) on the HaloTag): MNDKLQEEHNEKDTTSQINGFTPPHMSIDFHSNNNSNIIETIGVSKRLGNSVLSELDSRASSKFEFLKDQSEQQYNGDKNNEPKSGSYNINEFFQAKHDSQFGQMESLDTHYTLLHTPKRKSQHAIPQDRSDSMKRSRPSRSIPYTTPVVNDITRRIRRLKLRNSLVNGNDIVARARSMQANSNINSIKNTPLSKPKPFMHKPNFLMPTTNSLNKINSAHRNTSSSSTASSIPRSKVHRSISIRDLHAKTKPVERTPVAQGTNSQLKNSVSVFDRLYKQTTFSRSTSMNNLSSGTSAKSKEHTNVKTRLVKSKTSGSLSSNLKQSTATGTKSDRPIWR
Assay: microtubule recruitment assay (TIRF microscopy); undigested (+E-hook) microtubules with 40 nM She1 and 45 nM GFP–dynein331 ^∆MTBD; recruitment of the GFP protein by microtubule-bound She1; both purified

Substance: GFP–dynein331 ^∆MTBD, dynein motor domain fragment lacking its MTBD (budding yeast) (domain or fragment)
- binding: no binding (tested: 40 nM She1, 45 nM dynein mutant)

No constants are given. Whether binding was seen depends on the method and setting. Where a sequence is shown, tags or fusion partners need not be part of it.
